# Results of single-concentration screens

Values are the deposited “Percent Effect”, in %.
The controls that fix the scale are not given in the record; negative values are as filed.
This is an unselected part of the compounds tested.
Two or more numbers in one place are separate tests of the same structure; such repeats can differ widely.

Mtb cholesterol medium: 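Whole-cell growth test on Mycobacterium tuberculosis, read after 4 days in a medium based on cholesterol and the lipid DPPC; the read-out is not stated. Tested at 50 µM. The record gives no direction; compounds that gave an IC50 in retests scored well above the rest, so higher reads as more growth inhibition. About 69,000 compounds were tested under these conditions; 0.54% (about 370) showed 50% or more at least once.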
Mtb glucose medium: 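Phenotypic screen: M. tuberculosis growth, glucose 7H9 medium, 3 days; the read-out is not stated. Compounds at 50 µM. Direction is inferred from retests: higher values go with more growth inhibition. Of about 69,000 compounds tested this way, about 760 (1.1%) reached 50% or more in at least one test.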

| Compound | Mtb cholesterol medium | Mtb glucose medium |
|---|---|---|
| `CCOc1ccccc1N1CCN(CC2(O)CCCNC2)CC1` (stereo not shown) | 6.401% | 24.42% and 4.419% |
| `COCc1ccccc1CNc1nnc(C)c(C)c1C#N` | -24.17% | -26.26% |
| `Cc1cc2c(cc1C(=O)N1CCC3(CC(=O)NC3=O)C1)OCCO2` (stereo not shown) | -13.65% | -4.739% and 6.675% |
| `Cl.O=C(CN1CCCC1)Nc1c2c(cc3c1CCC3)CCC2` | 17.75% | 0.3942% and 30.83% |
| `CCCn1cnnc1CN(C)C(=O)C1CCC(=O)N(C2CCCC2)C1` (stereo not shown) | 5.942% and 0.6736% | 19.63% |
| `CN(C)Cc1nn(C)c2c1CN(C(=O)c1cccc(C#N)c1)C2` | 3.341% and -5.72% | -1.363% |
| `Cc1cc(C)c2nc(C)cc(C(=O)N3CC(O)CO3)c2c1` (stereo not shown) | -28.41% | -4.585% and -22.16% |
| `COc1ccc(Oc2cncc(C3CCCN3C(C)=O)n2)cc1` (stereo not shown) | -31.08% | -65.79% |
| `O[C@H]1[C@H](n2cc(-c3ccccn3)nn2)c2ccccc2C12CCNCC2` | -7.353% | 19.83% |
| `O=C1NCCCC12CCN(c1nc3c(c(C(F)(F)F)n1)CCCC3)C2` (stereo not shown) | -2.413% | 15.03% |
| `Cc1nn(C)cc1CN(C)Cc1cc2c(cc1OC(F)F)OCO2` | 18.2% | 23.95% |
| `Cc1ccc(Cl)c(C)c1NC(=O)N1CCCN(Cc2ccccn2)CC1` | -2.382% | 2.168% |
| `CCC(C)NC(=O)CCNC(=O)Nc1ccc(-n2cncn2)c(F)c1` (stereo not shown) | 5.99% | 8.02% |
| `COc1ccc2c(c1)[nH]c1c(N(C)CC3OCCO3)ncnc12` | 6.968% | 5.354% and 17.82% |
| `CN(Cc1ccc2c(c1)OCCO2)c1ncc(S(N)(=O)=O)s1` | -3.569% | 6.834% and -0.3146% |
| `O=S(=O)(CCCN1CCOC(Cn2cccn2)C1)c1ccccc1` (stereo not shown) | -3.858% | 17.83% |
| `CN(Cc1cccc(-n2cccn2)c1)Cc1c[nH]cn1` | 8.043% | 3.013% |
| `Cc1nccn1-c1nccnc1C1CCCN(C)C1` (stereo not shown) | -15.31% and 11.27% | 20.75% |
| `Cc1ccc(C(=O)N2CC[C@H](N3CCOCC3)[C@H](CCCO)C2)cc1O` | -13.29% | 4.508% and 5.868% |
| `COCCCNC(=O)CN(C)C(=O)c1cc2cc(C)ccc2nc1C` | 12.13% | 21.85% |
| `N#Cc1csc(CN(CC(=O)N2CCCC2)CC2CCCO2)c1` (stereo not shown) | 4.308% | -21.41% |
| `COc1ccccc1N1CCC(CNS(=O)(=O)c2cccc(C#N)c2)C1` (stereo not shown) | 2.365% | 0.6563% and -2.93% |
| `O=C(O)C(F)(F)F.[H][C@]12CCN(c3ncccn3)[C@@]1([H])CC[C@H](COCC(=O)N1CCCC1)O2` | -6.803% | 4.551% |
| `CN(Cc1cc(=O)c(O)co1)C1CCCN(c2ccccc2)C1` (stereo not shown) | 2.601% | -8.77% |
| `CC(C)c1nn(C)c(N(C)C)c1CNCc1ccc2c(c1)OCCO2` | -10.73% | 6.508% |
| `CC(C)N(Cc1ccccc1)C(=O)NCCNC(=O)c1cccnc1` | -22.92% | -24.12% |
| `CN(c1cccnc1N1CCCC1)S(=O)(=O)c1cccnc1` | -2.207% | -4.804% |
| `CCNC(=O)Cc1c(C)nc2c(c1C)c(=O)[nH]n2C` | -23.45% | -3.853% and 3.429% |
| `CC(C)CN1CCC(C(=O)Nc2cc(C(F)(F)F)c[nH]c2=O)CC1` | -7.895% | 8.474% |
| `Cc1cc(C(O)CCNC(=O)COc2ccccc2C)c(C)o1` (stereo not shown) | 9.725% | 2.597% and 18.59% |
| `O=C(NCCc1nc2ccccc2s1)c1coc(CN2CCOCC2)c1` | -28.94% | -40.67% |
| `CCN(Cc1cn(CC2CCNCC2)nn1)CC1CCCO1` (stereo not shown) | 11.82% | 9.938% |
| `Cc1ccc2c(C)c(C(=O)NCCc3csc(N)n3)oc2c1` | -30.84% | -35.21% |
| `CC(C)c1nc(C2CCCN(c3ncccn3)C2)no1` (stereo not shown) | 3.643% | 5.404% |
| `O=C(O)[C@@H]1CN(CC(=O)N2CCCCC2)C[C@H]1c1ccc(F)cc1` | -10.29% | 9.524% |
| `O=C(O)C(F)(F)F.[H][C@@]12CCCO[C@]1([H])[C@@H](OCC(C)C)CN2Cc1scnc1C` | -1.766% and -13.4% | -11.93% and -0.4419% |
| `COc1cccc2ccc(CN3CCN(c4cccnc4)CC3)nc12` | -16.76% | -9.849% |
| `Cc1ccc(C(=O)N2CCC3(CC2)COC(COc2cccnc2)C3)o1.O=C(O)C(F)(F)F` (stereo not shown) | -4.886% | 1.314% |
| `CN(C)C1COC2(CCN(Cc3ccc4c(c3)OCO4)CC2)C1.O=C(O)C(F)(F)F.O=C(O)C(F)(F)F` (stereo not shown) | -4.396% | -12.84% |
| `N#Cc1ccc(N2CCN(c3cnccn3)CC2)cc1C(F)(F)F` | 6.031% | -5.773% and -6.169% |

Data taken from ChEMBL document CHEMBL3988442, “University of Dundee, Small-Polar-MMV Screening Library” (2021).